Experimental data published in US20180305695.
For at least one entry, the source does not settle the construct or the ends of the probe.

Biological target: von Willebrand factor A1 domain (Homo sapiens) (UniProt P04275)
Assay: SPR
Conditions: 37 C; likely pM (protein 0.078-5 nM); p148: koff 0.162 1/s; purified recombinant protein; protein details: U-Protein Express V003; label: biotin (SPR); single-stranded DNA

GGCGTGCAGTGCCTTCGGCCGTGCGGTGCCTCCGTCACGCC [ARC1172]
Kd: 3.26e+08 pM
